Experimental data from the supplement of paper PMC10849652.
This is one part of the list.

The chains behind the UniProt entries cited, without tags or fusion partners. Where a name states a change or a piece, a line headed by the entry shows the natural chain unless it says otherwise.
UniProt Q86V85: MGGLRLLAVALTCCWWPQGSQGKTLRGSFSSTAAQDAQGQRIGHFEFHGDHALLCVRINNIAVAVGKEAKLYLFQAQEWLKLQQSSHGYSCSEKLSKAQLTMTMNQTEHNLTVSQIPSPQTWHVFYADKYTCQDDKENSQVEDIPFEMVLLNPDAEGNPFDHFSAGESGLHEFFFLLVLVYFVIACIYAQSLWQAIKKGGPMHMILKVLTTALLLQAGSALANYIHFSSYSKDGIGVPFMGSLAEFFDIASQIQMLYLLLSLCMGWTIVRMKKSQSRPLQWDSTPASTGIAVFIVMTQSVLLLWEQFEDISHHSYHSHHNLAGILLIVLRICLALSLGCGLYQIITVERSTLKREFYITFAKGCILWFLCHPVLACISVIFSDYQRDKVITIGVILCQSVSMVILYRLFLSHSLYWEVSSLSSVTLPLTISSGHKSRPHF
UniProt P21695: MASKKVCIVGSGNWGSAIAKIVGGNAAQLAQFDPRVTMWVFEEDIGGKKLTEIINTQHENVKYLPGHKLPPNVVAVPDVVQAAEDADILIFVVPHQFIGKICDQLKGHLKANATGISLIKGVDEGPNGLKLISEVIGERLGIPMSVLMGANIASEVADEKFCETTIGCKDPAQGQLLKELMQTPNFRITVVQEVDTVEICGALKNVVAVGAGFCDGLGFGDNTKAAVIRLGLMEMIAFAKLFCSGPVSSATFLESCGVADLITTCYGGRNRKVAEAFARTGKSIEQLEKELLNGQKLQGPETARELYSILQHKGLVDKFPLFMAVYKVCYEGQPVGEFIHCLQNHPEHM
UniProt Q9H4G4: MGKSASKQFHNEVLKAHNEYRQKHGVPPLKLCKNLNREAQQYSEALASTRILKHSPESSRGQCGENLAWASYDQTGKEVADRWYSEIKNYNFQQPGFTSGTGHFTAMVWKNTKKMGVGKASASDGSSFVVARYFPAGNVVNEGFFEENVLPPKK
UniProt Q9H4A5: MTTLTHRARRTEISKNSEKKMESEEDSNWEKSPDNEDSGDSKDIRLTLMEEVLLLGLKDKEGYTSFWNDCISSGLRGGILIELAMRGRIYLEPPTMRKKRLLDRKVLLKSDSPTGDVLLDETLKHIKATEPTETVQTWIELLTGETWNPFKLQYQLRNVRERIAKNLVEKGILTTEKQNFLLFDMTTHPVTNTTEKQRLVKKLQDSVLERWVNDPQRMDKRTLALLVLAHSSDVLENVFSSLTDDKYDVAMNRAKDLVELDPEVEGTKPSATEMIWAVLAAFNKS
UniProt Q9UJJ9: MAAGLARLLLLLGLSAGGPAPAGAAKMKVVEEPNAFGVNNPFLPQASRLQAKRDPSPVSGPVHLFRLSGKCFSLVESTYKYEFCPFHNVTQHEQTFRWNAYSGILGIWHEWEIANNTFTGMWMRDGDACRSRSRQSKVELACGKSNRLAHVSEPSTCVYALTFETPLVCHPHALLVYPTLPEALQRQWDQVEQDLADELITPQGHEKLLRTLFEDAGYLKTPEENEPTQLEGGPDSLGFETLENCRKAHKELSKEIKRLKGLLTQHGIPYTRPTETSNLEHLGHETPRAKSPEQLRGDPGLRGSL
UniProt P28799: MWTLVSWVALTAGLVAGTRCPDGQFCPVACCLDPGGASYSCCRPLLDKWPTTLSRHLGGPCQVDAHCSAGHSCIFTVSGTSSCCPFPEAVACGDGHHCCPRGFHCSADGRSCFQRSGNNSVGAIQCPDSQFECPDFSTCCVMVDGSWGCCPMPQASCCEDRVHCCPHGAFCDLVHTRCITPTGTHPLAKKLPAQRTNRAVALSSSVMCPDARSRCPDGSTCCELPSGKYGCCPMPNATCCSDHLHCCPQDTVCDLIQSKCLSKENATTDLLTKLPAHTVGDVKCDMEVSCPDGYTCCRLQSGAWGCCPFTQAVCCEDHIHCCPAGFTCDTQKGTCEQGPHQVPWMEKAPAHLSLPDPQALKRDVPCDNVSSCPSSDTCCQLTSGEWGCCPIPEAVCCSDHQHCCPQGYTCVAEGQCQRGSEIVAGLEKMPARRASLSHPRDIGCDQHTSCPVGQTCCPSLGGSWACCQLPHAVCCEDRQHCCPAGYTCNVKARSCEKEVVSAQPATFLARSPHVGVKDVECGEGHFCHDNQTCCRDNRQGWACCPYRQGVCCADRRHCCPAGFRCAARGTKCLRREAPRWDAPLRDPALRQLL
UniProt Q8TD30: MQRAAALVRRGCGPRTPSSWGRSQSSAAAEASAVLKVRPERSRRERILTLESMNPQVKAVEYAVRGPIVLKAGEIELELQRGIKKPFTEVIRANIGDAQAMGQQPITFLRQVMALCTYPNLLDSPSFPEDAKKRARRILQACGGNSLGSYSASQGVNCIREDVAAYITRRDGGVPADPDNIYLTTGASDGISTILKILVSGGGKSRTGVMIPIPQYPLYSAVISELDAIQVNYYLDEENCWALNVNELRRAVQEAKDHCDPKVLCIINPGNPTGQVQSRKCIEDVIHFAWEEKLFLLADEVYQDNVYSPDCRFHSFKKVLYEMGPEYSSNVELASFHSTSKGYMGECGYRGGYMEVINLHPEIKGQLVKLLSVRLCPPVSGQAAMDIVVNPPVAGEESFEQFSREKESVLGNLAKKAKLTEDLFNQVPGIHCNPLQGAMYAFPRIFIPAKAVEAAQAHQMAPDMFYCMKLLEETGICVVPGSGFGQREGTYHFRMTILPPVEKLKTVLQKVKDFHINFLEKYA
UniProt O75487: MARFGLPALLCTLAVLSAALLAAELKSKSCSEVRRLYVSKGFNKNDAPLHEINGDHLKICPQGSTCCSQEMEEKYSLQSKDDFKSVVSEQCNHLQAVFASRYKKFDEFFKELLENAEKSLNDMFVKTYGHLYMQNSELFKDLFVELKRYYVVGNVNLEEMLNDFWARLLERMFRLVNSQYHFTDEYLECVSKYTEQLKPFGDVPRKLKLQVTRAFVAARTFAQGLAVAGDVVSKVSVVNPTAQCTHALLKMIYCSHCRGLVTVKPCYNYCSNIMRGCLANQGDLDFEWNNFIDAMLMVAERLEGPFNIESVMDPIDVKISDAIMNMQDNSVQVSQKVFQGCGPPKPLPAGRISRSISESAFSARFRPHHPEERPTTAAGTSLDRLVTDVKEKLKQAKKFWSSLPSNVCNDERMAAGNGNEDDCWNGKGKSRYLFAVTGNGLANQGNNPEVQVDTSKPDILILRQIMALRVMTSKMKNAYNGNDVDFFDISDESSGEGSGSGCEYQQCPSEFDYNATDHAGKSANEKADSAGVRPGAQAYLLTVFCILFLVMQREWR
UniProt I6L899: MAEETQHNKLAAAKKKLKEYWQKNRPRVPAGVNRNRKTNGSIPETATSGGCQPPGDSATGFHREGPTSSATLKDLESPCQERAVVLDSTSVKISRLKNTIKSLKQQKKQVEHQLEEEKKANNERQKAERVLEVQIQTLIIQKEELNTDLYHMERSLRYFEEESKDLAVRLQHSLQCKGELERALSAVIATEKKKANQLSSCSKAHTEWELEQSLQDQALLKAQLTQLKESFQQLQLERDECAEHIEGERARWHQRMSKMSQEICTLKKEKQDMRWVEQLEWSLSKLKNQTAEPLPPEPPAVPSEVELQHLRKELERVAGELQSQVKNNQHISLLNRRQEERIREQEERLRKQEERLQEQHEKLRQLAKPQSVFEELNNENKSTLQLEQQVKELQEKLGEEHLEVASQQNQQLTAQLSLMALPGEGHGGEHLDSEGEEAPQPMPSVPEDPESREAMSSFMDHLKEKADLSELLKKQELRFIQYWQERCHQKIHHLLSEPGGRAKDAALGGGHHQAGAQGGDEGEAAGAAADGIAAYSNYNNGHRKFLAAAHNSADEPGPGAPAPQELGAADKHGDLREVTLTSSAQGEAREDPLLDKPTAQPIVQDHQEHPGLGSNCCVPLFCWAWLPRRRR
UniProt Q6ZS86: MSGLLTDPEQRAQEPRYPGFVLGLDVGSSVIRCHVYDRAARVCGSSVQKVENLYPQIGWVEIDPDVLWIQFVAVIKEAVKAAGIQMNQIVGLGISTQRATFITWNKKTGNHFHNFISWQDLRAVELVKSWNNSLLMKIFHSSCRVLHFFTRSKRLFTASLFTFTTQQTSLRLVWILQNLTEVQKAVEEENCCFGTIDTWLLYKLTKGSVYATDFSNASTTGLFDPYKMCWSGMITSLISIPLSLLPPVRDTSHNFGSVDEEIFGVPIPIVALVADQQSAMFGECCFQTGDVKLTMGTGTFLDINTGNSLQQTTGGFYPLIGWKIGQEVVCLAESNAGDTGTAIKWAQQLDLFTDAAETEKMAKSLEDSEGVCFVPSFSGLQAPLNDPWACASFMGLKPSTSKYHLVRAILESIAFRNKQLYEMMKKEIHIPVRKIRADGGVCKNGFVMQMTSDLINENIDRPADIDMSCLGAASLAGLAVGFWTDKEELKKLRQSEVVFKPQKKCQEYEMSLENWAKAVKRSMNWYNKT
UniProt Q9BVP2: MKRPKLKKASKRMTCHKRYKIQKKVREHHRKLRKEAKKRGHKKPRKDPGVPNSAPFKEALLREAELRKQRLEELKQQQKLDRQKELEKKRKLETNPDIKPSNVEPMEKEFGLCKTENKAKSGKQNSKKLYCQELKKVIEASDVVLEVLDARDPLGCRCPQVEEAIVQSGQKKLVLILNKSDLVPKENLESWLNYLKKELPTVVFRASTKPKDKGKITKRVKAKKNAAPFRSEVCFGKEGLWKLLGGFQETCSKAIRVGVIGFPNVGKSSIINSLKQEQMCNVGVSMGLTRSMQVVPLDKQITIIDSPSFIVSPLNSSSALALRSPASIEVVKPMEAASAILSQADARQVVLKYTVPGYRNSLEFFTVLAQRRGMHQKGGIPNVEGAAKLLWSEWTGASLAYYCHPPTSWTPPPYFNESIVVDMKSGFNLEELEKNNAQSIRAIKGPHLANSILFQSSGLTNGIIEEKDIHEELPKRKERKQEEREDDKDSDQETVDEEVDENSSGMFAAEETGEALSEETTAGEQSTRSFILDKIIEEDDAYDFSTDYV
UniProt Q9UBI6: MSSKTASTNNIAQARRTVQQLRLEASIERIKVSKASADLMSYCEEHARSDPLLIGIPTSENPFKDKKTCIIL
UniProt Q92805: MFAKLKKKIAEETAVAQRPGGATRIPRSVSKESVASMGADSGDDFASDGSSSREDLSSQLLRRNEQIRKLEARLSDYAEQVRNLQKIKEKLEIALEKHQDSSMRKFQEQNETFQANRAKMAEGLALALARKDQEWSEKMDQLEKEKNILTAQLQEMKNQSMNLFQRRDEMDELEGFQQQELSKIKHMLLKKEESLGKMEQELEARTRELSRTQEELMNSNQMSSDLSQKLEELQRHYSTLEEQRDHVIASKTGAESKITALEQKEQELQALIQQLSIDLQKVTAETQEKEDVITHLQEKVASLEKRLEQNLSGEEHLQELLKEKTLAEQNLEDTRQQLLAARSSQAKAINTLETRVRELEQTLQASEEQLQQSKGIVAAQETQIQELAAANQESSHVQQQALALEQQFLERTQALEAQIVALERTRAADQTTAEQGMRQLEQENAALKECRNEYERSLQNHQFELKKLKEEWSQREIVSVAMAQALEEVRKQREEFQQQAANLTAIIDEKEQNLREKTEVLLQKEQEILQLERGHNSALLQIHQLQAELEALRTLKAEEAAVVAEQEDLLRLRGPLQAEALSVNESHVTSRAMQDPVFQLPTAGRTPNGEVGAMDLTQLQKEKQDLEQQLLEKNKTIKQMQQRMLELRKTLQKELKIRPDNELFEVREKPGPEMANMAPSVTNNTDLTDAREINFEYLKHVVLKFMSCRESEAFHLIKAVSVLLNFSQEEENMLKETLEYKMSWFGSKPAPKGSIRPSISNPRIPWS
UniProt Q53GS7: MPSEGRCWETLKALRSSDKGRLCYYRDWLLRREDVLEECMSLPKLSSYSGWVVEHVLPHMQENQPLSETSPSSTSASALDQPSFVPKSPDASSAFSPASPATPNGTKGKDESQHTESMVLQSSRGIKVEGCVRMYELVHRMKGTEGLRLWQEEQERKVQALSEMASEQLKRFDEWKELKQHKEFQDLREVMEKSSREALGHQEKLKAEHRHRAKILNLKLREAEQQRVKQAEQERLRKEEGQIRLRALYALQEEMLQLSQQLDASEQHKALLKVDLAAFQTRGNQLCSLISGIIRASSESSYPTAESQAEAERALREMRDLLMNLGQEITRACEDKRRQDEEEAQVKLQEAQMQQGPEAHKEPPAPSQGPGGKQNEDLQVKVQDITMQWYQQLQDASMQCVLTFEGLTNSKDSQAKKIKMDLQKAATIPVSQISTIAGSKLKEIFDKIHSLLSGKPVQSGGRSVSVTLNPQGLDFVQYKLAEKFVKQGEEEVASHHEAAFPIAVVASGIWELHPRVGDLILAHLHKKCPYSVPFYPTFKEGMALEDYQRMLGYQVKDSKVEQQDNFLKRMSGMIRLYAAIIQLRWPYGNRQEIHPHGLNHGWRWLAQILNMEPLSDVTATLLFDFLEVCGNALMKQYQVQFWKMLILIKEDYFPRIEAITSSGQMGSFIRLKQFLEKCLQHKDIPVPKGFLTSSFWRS

Compound: CCn1cc(-c2ccnc3[nH]c(-c4cccc(CN(C)C)c4)cc23)c(-c2ccc(NC(=O)N(C)C)cc2)n1
Experiment: log2 fold change, soluble protein after heating vs DMSO (PISA); higher = thermal stabilisation; K562 cells, 10 uM, 30 min; active = over 0.2 and 3.5 SD of the protein, either way, in both replicates (recomputed)
Outline: (§1)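 Values are thermal stability changes relative to control samples and are taken from duplicates. They are stated as log2 fold changes. Before quantification by TMTpro 16plex LC-MS/MS with equalised channel sums, K562 cells at 2×10^6 cells/mL were treated with 10 μM compound for 30 min, heated in aliquots for 3 min across 48°C-58°C, pooled, extracted in PBS with 0.5% NP-40 at 4°C, and centrifuged at 21,000xg for 90 min to give the soluble supernatant.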

log2 fold change, inactive:
GPAM (UniProt Q9HCL2) 0.23
GPR180 (UniProt Q86V85) -0.054
GPD1 (UniProt P21695) -0.011
GLIPR2 (UniProt Q9H4G4) -0.032
GOLPH3L (UniProt Q9H4A5) -0.108
GNPTG (UniProt Q9UJJ9) 0.057
GNL3L (UniProt Q9NVN8) 0.001
GPAA1 (UniProt E9PLG8) 0.075
GRN (UniProt P28799) -0.154
GPT2 (UniProt Q8TD30) -0.169
GPC4 (UniProt O75487) -0.288
GOLGA8R (UniProt I6L899) -0.182
GK5 (UniProt Q6ZS86) -0.169
GNL3 (UniProt Q9BVP2) 0.118
GJA1 (UniProt P17302) -0.096
GPS1 (UniProt A8K070) -0.127
GOLGA6B (UniProt A6NDN3) -0.185
GNG12 (UniProt Q9UBI6) -0.127
GIGYF1 (UniProt O75420) -0.106
GOLGA1 (UniProt Q92805) 0.077
GOLIM4 (UniProt F8W785) 0.008
GLT8D1 (UniProt Q68CQ7) 0.106
GNL2 (UniProt Q13823) -0.128
GPCPD1 (UniProt Q9NPB8) -0.062
GOPC (UniProt Q9HD26) 0.149

Compound: CN(C)CC(=O)Nc1ccc2[nH]c(=O)c3ccccc3c2c1
Experiment: as above
Outline: as §1

log2 fold change, inactive:
GPR180 (UniProt Q86V85) 0.046
GPD1 (UniProt P21695) -0.045
GLIPR2 (UniProt Q9H4G4) -0.117
GOLPH3L (UniProt Q9H4A5) 0.01
GRK6 isoform 2 (UniProt P43250) -0.021
GRN (UniProt P28799) -0.097
GPT2 (UniProt Q8TD30) 0.124
GOLGA8R (UniProt I6L899) 0.191
GK5 (UniProt Q6ZS86) -0.164
GNL3 (UniProt Q9BVP2) 0.002
GOLGA6B (UniProt A6NDN3) 0.327
GOLGA1 (UniProt Q92805) 0.218
GOLIM4 (UniProt F8W785) 0.002
GSE1 (UniProt Q14687) -0.117
GREB1 (UniProt Q4ZG55) -0.095
GOPC (UniProt Q9HD26) 0.056

Compound: CN(CCOC1=CC=C(C=C1)C[C@H]2C(=O)NC(=O)S2)C3=CC=CC=N3 (racemic) [rosiglitazone]
Experiment: as above
Outline: as §1

log2 fold change, inactive:
GPR180 (UniProt Q86V85) -0.354
GNPTG (UniProt Q9UJJ9) -0.021
GLCE (UniProt O94923) -0.04
GPAA1 (UniProt E9PLG8) 0.231
GRN (UniProt P28799) -0.002
GK5 (UniProt Q6ZS86) 0.054
GJA1 (UniProt P17302) 0.063
GPS1 (UniProt A8K070) 0.058
GMIP (UniProt Q9P107) -0.057
GOLIM4 (UniProt F8W785) 0.017
GIT2 (UniProt Q14161) 0.192
GP6 isoform 3 (UniProt Q9HCN6) -0.056
GNL2 (UniProt Q13823) -0.191
GOSR1 (UniProt E9PCW1) -0.012
GRAMD1A (UniProt Q96CP6) 0.231

Compound: CN1C2=C(C3=C1C(=O)N(N=C3)CC4=CC(=CC=C4)N)SC(=C2)S(=O)C
Experiment: as above
Outline: as §1

log2 fold change, inactive:
GPR180 (UniProt Q86V85) 0.117
GLE1 (UniProt Q53GS7) 0.459
GPD1 (UniProt P21695) -0.126
GLIPR2 (UniProt Q9H4G4) -0.084
GNPTG (UniProt Q9UJJ9) 0.01
GRK6 isoform 2 (UniProt P43250) 0.143
GPAA1 (UniProt E9PLG8) -0.101
GRN (UniProt P28799) 0.054
GPT2 (UniProt Q8TD30) -0.278
GORASP1 (UniProt Q9BQQ3) 0.224
GOLGA8R (UniProt I6L899) -0.003
GK5 (UniProt Q6ZS86) 0.025
GNL3 (UniProt Q9BVP2) -0.103
GIT1 isoform 3 (UniProt Q9Y2X7) 0.102
GOLGA1 (UniProt Q92805) 0.116
GMIP (UniProt Q9P107) 0.206
GOLIM4 (UniProt F8W785) -0.023
GIT2 (UniProt Q14161) -0.101
GLT8D1 (UniProt Q68CQ7) -0.119
GOSR1 (UniProt E9PCW1) 0.149
GSE1 (UniProt Q14687) -0.004
GSDME (UniProt O60443) -0.341
GPCPD1 (UniProt Q9NPB8) 0.05
GOPC (UniProt Q9HD26) 0.153
